Measurements reported in PubChem BioAssay AID540256 (National Center for Advancing Translational Sciences (NCATS), 2011).
Several values for one entry are separate records, joined by “and”; a condition that tells them apart may be missing. Equal values may be shown once. In all, about 300,000 compounds went through this assay and about 3,700 (1.2%) were called active. This list was built around the results that the source calls inconclusive (neither active nor inactive); the mix of calls is not that of the screen. The call rests on the fitted dose curve; tested in HEK293 cells. A potency beside an inconclusive call is a rough fit, not a confirmed value.

Assay: qHTS for Inhibitors of binding or entry into cells for Lassa Virus; further: nearly all actives have a fitted effect of over 50% in size
Conditions: Lassa virus pseudotype entry inhibition, cell reporter; series mostly up to 37.9 µM
Potency means the concentration at half of the fitted maximal effect.

SMILES	Potency
Cc1ccc2c(CC(=O)Nc3ccc(N4CCN(C)CC4)cc3C)coc2c1	inconclusive: 0.58 µM [activator, full curve]
CCOC(=O)C(Cc1ccccc1)C(=O)Nc1cccc2ccccc12 (stereo not given)	inactive
CCc1nc2ccccc2c(C(=O)OCC(=O)NC2CCCC2)c1C	inconclusive: 8.91 µM [inhibitor, partial curve, poor fit]
Cc1cc(Br)ccc1NC(=S)Nc1cccc([N+](=O)[O-])c1	inactive
Cn1c(=S)c2[nH]c(SCCN)nc2n(C)c1=O	inactive
CCCOc1cccc(C(=O)N(Cc2ccc(C)o2)C2CCS(=O)(=O)C2)c1 (stereo not given)	inactive
COc1ccc2[nH]c3c(=O)n4c(nc3c2c1)SCC4	inactive
COc1ccc(NC(=O)C(NS(=O)(=O)c2cccs2)C(C)C)cc1Cl (stereo not given)	inactive
Cc1ccc(C(C(=O)NCc2ccco2)N(C(=O)Cc2cccs2)c2cccnc2)cc1 (stereo not given)	inactive
O=c1[nH]c2cc3c(cc2cc1CN(Cc1cccs1)Cc1nnnn1Cc1ccco1)OCCO3	inconclusive: 35.5 µM [inhibitor, single point]
CCN(CC)c1ccc(NC(=O)CSc2nc(C3CC3)nc3ccccc23)cc1C	inconclusive: 1 µM [inhibitor, full curve, poor fit]
O=C(O)C1CCC(CNS(=O)(=O)c2ccccc2)CC1 (stereo not given)	inactive
CCCCNC(=O)Cn1cnc2sc(C(=O)OCC)c(C)c2c1=O	inactive
COc1cc(/C=N/Nc2cc(C)nc(N)n2)ccc1O	inconclusive: 35.5 µM [activator, single point]
O=C(Nc1cccc(F)c1)C1CCN(c2nnnn2-c2ccccc2)CC1	inconclusive: 1.64 µM [inhibitor, partial curve, poor fit]
CN(CC(=O)NC1CCCCC1)S(=O)(=O)c1cccc2nsnc12	inactive
CCOC(=O)c1c(NC(=O)CSc2nc3ccc(OC)cc3[nH]2)sc2c1CC(C)(C)NC2(C)C	inconclusive: 28.2 µM [inhibitor, single point]
COC(=O)C(C)N=Cc1ccccc1 (stereo not given)	inconclusive: 0.501 µM [activator, full curve, poor fit]
Cc1c(C(=O)OC(C)C)[nH]c2c1C(=O)CC(C)(C)C2	inactive
Cc1cccc(C)c1NC(=O)CNC(=O)CCC(=O)c1cccs1	inactive
Cc1ccc(NC(=O)Nc2cnccn2)cc1Cl	inactive
CCN(C(=O)CCn1cnc2onc(-c3ccc(F)cc3)c2c1=O)c1ccc(OC)cc1	inconclusive: 3.16 µM [inhibitor, partial curve, poor fit]
CCCc1nc2oc3c(NCCCN(C)C)ncnc3c2c2c1CCCC2	inconclusive: 10 µM [inhibitor, partial curve]
CC(C)(C)c1ccc(OCC(=O)NCCN2CCOCC2)cc1	inactive

Some of the entries so far, with bars between the fields:
SMILES | Potency
CCc1nc2ccccc2c(C(=O)OCC(=O)NC2CCCC2)c1C | inconclusive: 8.91 µM [inhibitor, partial curve, poor fit]
Cc1cc(Br)ccc1NC(=S)Nc1cccc([N+](=O)[O-])c1 | inactive

Following part

SMILES	Potency
O=C(CCS(=O)(=O)c1nc(-c2ccc3c(c2)OCO3)cc(C(F)(F)F)n1)Nc1ccccc1F	inconclusive: 3.55 µM [activator, single point]
CN=C1S/C(=C\c2cc(C)n(-c3ccccc3F)c2C)C(=O)N1C	inconclusive: 32.6 µM [inhibitor, single point]
COc1ccc(CCNC(=O)Cc2cccs2)cc1OC	inactive
CCN(CC)C(=O)c1sc2c(c1C)c(=O)n(Cc1ccccc1)c(=O)n2Cc1ccc(Cl)cc1	inconclusive: 7.08 µM [inhibitor, partial curve, poor fit]
CC(SCc1ccccc1)C(=O)N/N=C/c1cc2c(cc1Br)OCO2 (stereo not given)	active: 23.1 µM
Cc1nc(-c2ccccc2)sc1-c1nc(-c2ccccc2)ncc1S(=O)(=O)c1ccccc1	inconclusive: 3.66 µM [inhibitor, single point]
CCOC(=O)c1sc(NC(=O)c2cccs2)cc1C	inconclusive: 0.891 µM [activator, full curve, poor fit]
CC1(C)CSC(=NCCc2ccccc2)N1	inconclusive: 35.5 µM [activator, single point]
CCOCCCNC(=O)C(c1ccc(C)cc1)N(Cc1cccs1)C(=O)c1ccc(NC(C)=O)cc1 (stereo not given)	inconclusive: 10 µM [inhibitor, partial curve, poor fit]
Cc1ccc2c(c1)N(CC(=O)NCc1ccccc1Br)C(=O)c1cccnc1O2	inconclusive: 35.5 µM [inhibitor, single point]
CCOC(=O)Cc1c(C)c2ccc(N(CC)CC)cc2oc1=O	inactive
O=C(Nc1ccc(F)cc1F)c1c(C(F)(F)F)ccnc1Oc1cccc(C(F)(F)F)c1	inconclusive: 0.631 µM [inhibitor, full curve, poor fit]
Cc1ccc(-c2nsc3c(N4CCC(C(N)=O)CC4)ncnc23)cc1	inconclusive: 1.58 µM [inhibitor, full curve]
CC(=O)c1ccc(N/N=C(/C(N)=O)C2=NC(C)(C)Cc3ccccc32)cc1	active: 2.91 µM
CCC1(c2ccccc2)NC(=O)N(CC(=O)Nc2ccccc2N2CCCCC2)C1=O (stereo not given)	inactive
CC(=O)Nc1ccc(NC(=O)C(C)OC(=O)c2cc(S(=O)(=O)N(C)C)ccc2N2CCCC2)cc1 (stereo not given)	inactive
O=C(NCCc1ccc(Cl)cc1)c1ccc(OCC2CCCO2)cc1 (stereo not given)	inconclusive: 8.91 µM [inhibitor, partial curve, poor fit]
CCOc1ccc(-n2c(O)c(/C=N/Nc3nnc(C)c(=O)[nH]3)c3ccccc3c2=O)cc1	inactive
CC(C)CC(=O)c1c[nH]c(C(=O)N2CCN(Cc3ccccc3)CC2)c1	inconclusive: 7.94 µM [inhibitor, partial curve, poor fit]
Cc1ccc(-c2noc(CSc3nnc(Cc4ccccc4)n3-c3cccc(C)c3)n2)cc1	inconclusive: 8.2 µM [inhibitor, partial curve, poor fit] and inconclusive: 7.94 µM [inhibitor, partial curve, poor fit]
COC(=O)CCc1sc(Nc2ccccc2)nc1-c1ccc(OC)cc1	inactive
Cc1cc(C)c(NC(=O)Cn2c(=O)n(Cc3ccco3)c(=O)c3ccc(C(=O)NC4CCCC4)cc32)c(C)c1	inactive
CC(C)NC(=O)NC(=O)CN1C(=O)NC2(CCc3ccccc3C2)C1=O (stereo not given)	inconclusive: 28.2 µM [inhibitor, partial curve, poor fit]
Cc1cccc(N2CCN(C(=O)c3cnn(-c4cccc(Cl)c4C)c3C3CCNCC3)CC2)c1C	inconclusive: 12.6 µM [inhibitor, single point]

SMILES	Potency
CCOC(=O)C1CCN(C(=O)c2cc(S(=O)(=O)N3CCc4ccccc43)ccc2OC)CC1	inconclusive: 8.91 µM [inhibitor, partial curve]
O=C(c1c[nH]c(C(=O)C(Cl)(Cl)Cl)c1)c1ccccc1Br	inactive
COc1ccc(NC(=O)N2CCCc3ccccc32)c(OC)c1	inconclusive: 31.6 µM [activator, single point]
Cc1cccc(NCC(=O)N/N=C\c2c[nH]c3ccccc23)c1	inconclusive: 20 µM [inhibitor, partial curve, poor fit]
CC(=O)c1ccc(N2CCN(S(=O)(=O)c3ccc4c(c3)CC(C)N4C(C)=O)CC2)cc1 (stereo not given)	inconclusive: 35.5 µM [inhibitor, single point]
CCc1n[nH]c(=S)n1/N=C/c1ccc(NC(C)=O)cc1	inconclusive: 2.24 µM [inhibitor, full curve]
COC(=O)c1cc(C(=O)c2ccc(Cl)cc2)n2c(=O)/c(=C\N(C)C)sc12	inactive
Cc1ccc(N2CC(NC(=O)c3ccc(S(=O)(=O)N4CCCCC4)cc3)CC2=O)cc1 (stereo not given)	inactive
COC(=O)c1ccc(NC(=O)c2cc(=O)c3ccc(C)cc3o2)cc1	inactive
Cc1cc(C(=O)NC2CCCc3c2cnn3-c2cccc(C)c2C)c(C)o1 (stereo not given)	inconclusive: 2 µM [inhibitor, partial curve, poor fit]
CCN(CC)C(=O)CSc1nc2ccccc2c(=O)n1OC	inactive
O=c1oc2ccc(Br)cc2cc1-c1csc(-c2ccccc2)n1	inconclusive: 7.94 µM [activator, single point]
CCOC(=O)c1cc(NC(=O)c2ccc(C)cc2)c(=O)n2c1oc1ccc(Cl)cc12	inactive
Cc1ccc(-n2c(SCC(=O)N3CCOCC3)nnc2-c2cccnc2)cc1C	inconclusive: 2.82 µM [inhibitor, partial curve, poor fit]
CCOc1ccc(NC(=O)CCC(=O)NNC(=O)Nc2ccc(Cl)cc2)cc1	inconclusive: 10 µM [inhibitor, partial curve, poor fit]
CCOc1ccc(-n2c(SCc3cc(=O)oc4cc(C)c(C(C)C)cc34)nnc2-c2cccnc2)cc1	inactive
O=C(/C=C/c1cn(-c2ccccc2)nc1-c1ccc2c(c1)OCCO2)NCCO	inconclusive: 3.55 µM [inhibitor, single point]
CCOc1cc(/C=C/C(=O)c2ccc(C)cc2)ccc1OCC(=O)N(C)C	inconclusive: 25.9 µM [inhibitor, single point]
O=C(NCc1ccccn1)c1nc(Cn2ccc([N+](=O)[O-])n2)no1	inconclusive: 0.562 µM [inhibitor, full curve, poor fit]
COc1cccc(C(=O)CSc2nc3ccccc3n2CC(=O)N(C(C)C)C(C)C)c1	inactive
COc1ccc(S(=O)(=O)N(Cc2ccccc2)Cc2nc3ccccc3c(=O)[nH]2)cc1	inconclusive: 2.24 µM [inhibitor, partial curve, poor fit]
CC1CCN(S(=O)(=O)c2cccc(C(=O)NCc3ccco3)c2)CC1	inactive

Quoted from the listing:
Potency, O=C(/C=C/c1cn(-c2ccccc2)nc1-c1ccc2c(c1)OCCO2)NCCO reads inconclusive: 3.55 µM [inhibitor, single point]
Potency, COc1ccc(S(=O)(=O)N(Cc2ccccc2)Cc2nc3ccccc3c(=O)[nH]2)cc1 reads inconclusive: 2.24 µM [inhibitor, partial curve, poor fit]
